Results deposited as PubChem BioAssay AID652272 (Drosophila RNAi Screening Center, 2013).

Screen: 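Finding fly genes that regulate Hedgehog signal transduction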 (primary screen)
Cell system: Drosophila clone 8 (Cl8) cells
Reagent: long dsRNA against Drosophila genes
Detection: 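Firefly light from a Hedgehog-responsive ptc promoter reporter and Renilla reference light, both read on a plate reader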
Reading the numbers: firefly Hh reporter signal: higher = more ptc reporter light; Renilla reference signal: higher = more Renilla control light
Rule for the call: 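Called a hit if the two-replicate mean z-score lies below -2 or above +3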
Calls: active = hit: reporter lowered or raised; inactive = not a hit
In all, the deposit lists about 21,000 reagents; below is a random part of those with a known target gene and a result. In the full data, 503 (2.4%) got an active call. 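Raw plate light values, not normalised; calls rest on replicate z-scores that were not deposited; hits include reporter decreases as well as increases.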 A plus sign joins genes that one reagent is predicted to hit. Reagent sequences are not shown. The record does not give: the amount of reagent, the time to read-out.

With CG12926 [DRSC06239], how do the results read?
firefly Hh reporter signal, replicate 1: 1.36e5; firefly Hh reporter signal, replicate 2: 6.73e5; firefly Hh reporter signal, replicate 3: 73058; Renilla reference signal, replicate 1: 2980; Renilla reference signal, replicate 2: 36773; activity call: inactive

What did the screen give for Ssdp [DRSC16211]?
firefly Hh reporter signal, replicate 1: 5.80e5; firefly Hh reporter signal, replicate 2: 62429; Renilla reference signal, replicate 1: 28583; Renilla reference signal, replicate 2: 1552; activity call: inactive

What did the screen give for CG4991 [DRSC19928]?
firefly Hh reporter signal, replicate 1: 91481; firefly Hh reporter signal, replicate 2: 1.39e5; Renilla reference signal, replicate 1: 2356; Renilla reference signal, replicate 2: 3133; activity call: inactive

Which result is listed for TBPH [DRSC04660]?
firefly Hh reporter signal, replicate 1: 64720; firefly Hh reporter signal, replicate 2: 59031; Renilla reference signal, replicate 1: 2688; Renilla reference signal, replicate 2: 2443; activity call: inactive

For Try29F [DRSC03466], what does the deposit list?
firefly Hh reporter signal, replicate 1: 96979; firefly Hh reporter signal, replicate 2: 53189; Renilla reference signal, replicate 1: 2838; Renilla reference signal, replicate 2: 5328; activity call: inactive

With psidin [DRSC15660], what does the deposit list?
firefly Hh reporter signal, replicate 1: 5.99e5; firefly Hh reporter signal, replicate 2: 1.22e5; Renilla reference signal, replicate 1: 30058; Renilla reference signal, replicate 2: 3229; activity call: inactive

For LeuRS-m [DRSC08595], what does the deposit list?
firefly Hh reporter signal, replicate 1: 1.06e5; firefly Hh reporter signal, replicate 2: 62978; Renilla reference signal, replicate 1: 4192; Renilla reference signal, replicate 2: 2882; activity call: inactive

With Clic [DRSC19364], how do the results read?
firefly Hh reporter signal, replicate 1: 1.29e5; firefly Hh reporter signal, replicate 2: 1.15e5; Renilla reference signal, replicate 1: 2704; Renilla reference signal, replicate 2: 2672; activity call: inactive

For CG8757 [DRSC11039], what does the deposit list?
firefly Hh reporter signal, replicate 1: 53250; firefly Hh reporter signal, replicate 2: 34512; firefly Hh reporter signal, replicate 3: 41322; Renilla reference signal, replicate 1: 3509; Renilla reference signal, replicate 2: 2872; activity call: inactive

With CG17977 [DRSC06700], how do the results read?
firefly Hh reporter signal, replicate 1: 77675; firefly Hh reporter signal, replicate 2: 52257; Renilla reference signal, replicate 1: 1952; Renilla reference signal, replicate 2: 4748; activity call: inactive

What is on record for CG42662 + CG30080 [DRSC05571]?
firefly Hh reporter signal, replicate 1: 1.73e5; firefly Hh reporter signal, replicate 2: 3.74e5; Renilla reference signal, replicate 1: 4435; Renilla reference signal, replicate 2: 15728; activity call: inactive

For CG11200 [DRSC06060], what was measured?
firefly Hh reporter signal, replicate 1: 87968; firefly Hh reporter signal, replicate 2: 61044; Renilla reference signal, replicate 1: 3511; Renilla reference signal, replicate 2: 2661; activity call: inactive

How did the screen score CG15535 [DRSC15071]?
firefly Hh reporter signal, replicate 1: 1.04e5; firefly Hh reporter signal, replicate 2: 1.10e5; Renilla reference signal, replicate 1: 2721; Renilla reference signal, replicate 2: 3218; activity call: inactive

What did the screen give for CG15293 [DRSC01919]?
firefly Hh reporter signal, replicate 1: 1.30e5; firefly Hh reporter signal, replicate 2: 50345; Renilla reference signal, replicate 1: 3840; Renilla reference signal, replicate 2: 4774; activity call: inactive

With Rpi [DRSC04583], what was measured?
firefly Hh reporter signal, replicate 1: 96384; firefly Hh reporter signal, replicate 2: 71568; Renilla reference signal, replicate 1: 2272; Renilla reference signal, replicate 2: 7654; activity call: inactive

For CG15880 [DRSC00474], what does the deposit list?
firefly Hh reporter signal, replicate 1: 1.05e5; firefly Hh reporter signal, replicate 2: 85984; Renilla reference signal, replicate 1: 2641; Renilla reference signal, replicate 2: 2230; activity call: inactive

For mtt [DRSC05106], what was measured?
firefly Hh reporter signal, replicate 1: 58745; firefly Hh reporter signal, replicate 2: 1.35e5; Renilla reference signal, replicate 1: 1765; Renilla reference signal, replicate 2: 8362; activity call: active

Which result is listed for mtt [DRSC05107]?
firefly Hh reporter signal, replicate 1: 92188; firefly Hh reporter signal, replicate 2: 2.58e5; Renilla reference signal, replicate 1: 1972; Renilla reference signal, replicate 2: 9832; activity call: inactive

With mtt [DRSC06753], how do the results read?
firefly Hh reporter signal, replicate 1: 1.24e5; firefly Hh reporter signal, replicate 2: 44198; Renilla reference signal, replicate 1: 2968; Renilla reference signal, replicate 2: 3952; activity call: inactive

What did the screen give for mtt [DRSC07235]?
firefly Hh reporter signal, replicate 1: 1.16e5; firefly Hh reporter signal, replicate 2: 58916; Renilla reference signal, replicate 1: 2877; Renilla reference signal, replicate 2: 4659; activity call: inactive

For CG9391 [DRSC11858], what was measured?
firefly Hh reporter signal, replicate 1: 90552; firefly Hh reporter signal, replicate 2: 91121; Renilla reference signal, replicate 1: 3094; Renilla reference signal, replicate 2: 2167; activity call: inactive

Records listed so far marked active:
mtt [DRSC05106]: firefly Hh reporter signal, replicate 1 = 58745; firefly Hh reporter signal, replicate 2 = 1.35e5; Renilla reference signal, replicate 1 = 1765; Renilla reference signal, replicate 2 = 8362; activity call = active
